Measured values from the supplement of paper PMC3334620.
Over roughly 33,000 sequences, “E-score (-0.5 to 0.5)” has its median near -0.015; the highest 2% begin near 0.3. Some of the results follow.

target: T1, Abf1 (UniProt P14164); experiment: PBM E-score (8-mer binding enrichment) (E-score (-0.5 to 0.5)); higher = stronger / more preferred TF binding; details: protein concentration: 200 nM; construct: GST-full length
T1 sequence: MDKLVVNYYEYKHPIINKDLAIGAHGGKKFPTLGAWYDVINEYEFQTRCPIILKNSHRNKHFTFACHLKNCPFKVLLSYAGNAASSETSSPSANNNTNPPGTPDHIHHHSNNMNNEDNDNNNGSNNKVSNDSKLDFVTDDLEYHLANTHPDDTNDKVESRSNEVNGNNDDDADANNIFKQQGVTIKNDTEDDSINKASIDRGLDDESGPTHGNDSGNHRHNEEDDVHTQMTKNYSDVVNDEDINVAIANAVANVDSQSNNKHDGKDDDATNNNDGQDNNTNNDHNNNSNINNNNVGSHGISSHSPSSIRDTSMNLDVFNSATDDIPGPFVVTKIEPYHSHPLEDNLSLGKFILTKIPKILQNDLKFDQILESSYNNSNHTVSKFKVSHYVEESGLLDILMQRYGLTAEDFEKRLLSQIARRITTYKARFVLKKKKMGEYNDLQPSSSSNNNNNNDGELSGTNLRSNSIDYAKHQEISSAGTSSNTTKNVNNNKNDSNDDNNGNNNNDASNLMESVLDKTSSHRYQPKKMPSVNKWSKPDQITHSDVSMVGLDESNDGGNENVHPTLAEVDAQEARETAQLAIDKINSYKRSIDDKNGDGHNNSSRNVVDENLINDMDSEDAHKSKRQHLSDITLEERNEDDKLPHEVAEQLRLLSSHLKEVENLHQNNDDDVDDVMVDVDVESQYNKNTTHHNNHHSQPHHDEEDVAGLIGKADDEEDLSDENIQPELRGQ
Outline: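 The E-score, a modified Wilcoxon-Mann-Whitney statistic, was computed by the Universal PBM Analysis Suite for every ungapped eight-base word pooled with its reverse complement. Scans behind it were normalised with masliner after bound GST-tagged yeast transcription factors were detected with fluorescent anti-GST. The proteins, at about 100-200 nM, had been applied to universal all-10-mer Agilent arrays made double-stranded by primer extension.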

Sequence | PBM E-score
AGGTTCCC | -0.2
CGCTCTAG | -0.276
GTCTACAC | -0.0648
CATCCCTA | 0.0381
CCTACTGC | -0.0438
ACCGGAAG | 0.052
AGAGCTAT | -0.142
GTCAGTAA | -0.0323
AATATCCG | 0.153
AACTAACA | 0.183
AAGCATCT | -0.0815
CGAGCGAC | 0.0297
AGTAACCA | -0.144
AACCACTC | -0.193
ACAATTGT | -0.0948
ACCTATGA | -0.0753
CCCTATCA | -0.0764
CTTGCGGC | -0.151
CTCCAGGC | -0.139
CTTCTGCA | 0.071
GCGAACGA | 0.0921
ATGCGACA | 0.207

Some values from the list:
Value of AACTAACA under PBM E-score: 0.183
Value of CCCTATCA under PBM E-score: -0.0764

(next part)

Sequence | PBM E-score
ACACCCTC | -0.235
GGCCGGCC | -0.146
AATCCCGG | -0.189
GGCAGCAA | -0.156
ACAATTTA | -0.0719
TCACACAA | 0.0163
GAATCTGA | 0.0765
AACGCACG | 0.243
AATCGTGT | 0.271
AAGATGTC | 0.0418
ACGTCCGA | 0.137
AGTCTTAC | -0.152
AGCTTGCA | -0.178
AAGTTTGA | 0.00335
CACGAGCC | 0.16
AACTCGGA | -0.116
AGACGTCA | 0.107
CTTTCCAA | 0.0814
AAGCACAT | 0.0722
GCAGACCC | -0.286
CGTATTCC | 0.189
CATGGTGG | -0.174

Part of the list above, with tabs.
Sequence	PBM E-score
ACACCCTC	-0.235
TCACACAA	0.0163
AAGATGTC	0.0418

Further records:

Sequence | PBM E-score
GATCCGAC | 0.0109
ACTCGGCT | -0.088
CGGCAGCC | -0.0383
AGTCCATA | 0.0757
AATCTTAC | 0.13
AGAGATTA | 0.0822
ACTAACCA | 0.0119
GCGCCTAA | 0.247
CATAGGAG | -0.135
ACCCGACG | 0.00691
AGAACCGG | -0.244
ACGCCTCC | -0.2
ATCCCCAG | -0.034
AAATCCTA | -0.00873
CACCGAAA | 0.058
CTCACAGC | -0.0854
ATCTGCGG | -0.0296
ACCAATTG | -0.00572
CCGTTGCC | -0.201
CCCGGCGC | -0.147
ATCTGAAT | 0.0175
ACTGAAGA | -0.00996

Sequence | PBM E-score
AGGGGGAG | -0.427
AGCCGTTG | 0.153
CCGAACTC | -0.141
AGTGCAGG | -0.201
ACAGGGAG | -0.0871
GGCTGTCA | 0.0901
CCATGTAA | -0.0371
ACTCTCAT | 0.116
AGCGGAAA | -0.0245
AGATACCA | 0.045
ATACCTTA | 0.228
TAAGGCAA | -0.17
CCACGGCA | 0.198
AGTCATTG | 0.00581
AGTGTTAG | -0.132
TCAGGCCA | -0.216
ATCCTCAT | 0.0287
GGTCCGCA | -0.0891
AGGCAGTC | -0.0418
CTAATAAG | -0.0784
